Measured values: article PMC5995852
Results are given in words; binding and its absence hold for the method and conditions named. Binding seen in cells or lysates may run through a third protein.

The chains behind the UniProt entries cited, without tags or fusion partners.
UniProt Q9JIR4: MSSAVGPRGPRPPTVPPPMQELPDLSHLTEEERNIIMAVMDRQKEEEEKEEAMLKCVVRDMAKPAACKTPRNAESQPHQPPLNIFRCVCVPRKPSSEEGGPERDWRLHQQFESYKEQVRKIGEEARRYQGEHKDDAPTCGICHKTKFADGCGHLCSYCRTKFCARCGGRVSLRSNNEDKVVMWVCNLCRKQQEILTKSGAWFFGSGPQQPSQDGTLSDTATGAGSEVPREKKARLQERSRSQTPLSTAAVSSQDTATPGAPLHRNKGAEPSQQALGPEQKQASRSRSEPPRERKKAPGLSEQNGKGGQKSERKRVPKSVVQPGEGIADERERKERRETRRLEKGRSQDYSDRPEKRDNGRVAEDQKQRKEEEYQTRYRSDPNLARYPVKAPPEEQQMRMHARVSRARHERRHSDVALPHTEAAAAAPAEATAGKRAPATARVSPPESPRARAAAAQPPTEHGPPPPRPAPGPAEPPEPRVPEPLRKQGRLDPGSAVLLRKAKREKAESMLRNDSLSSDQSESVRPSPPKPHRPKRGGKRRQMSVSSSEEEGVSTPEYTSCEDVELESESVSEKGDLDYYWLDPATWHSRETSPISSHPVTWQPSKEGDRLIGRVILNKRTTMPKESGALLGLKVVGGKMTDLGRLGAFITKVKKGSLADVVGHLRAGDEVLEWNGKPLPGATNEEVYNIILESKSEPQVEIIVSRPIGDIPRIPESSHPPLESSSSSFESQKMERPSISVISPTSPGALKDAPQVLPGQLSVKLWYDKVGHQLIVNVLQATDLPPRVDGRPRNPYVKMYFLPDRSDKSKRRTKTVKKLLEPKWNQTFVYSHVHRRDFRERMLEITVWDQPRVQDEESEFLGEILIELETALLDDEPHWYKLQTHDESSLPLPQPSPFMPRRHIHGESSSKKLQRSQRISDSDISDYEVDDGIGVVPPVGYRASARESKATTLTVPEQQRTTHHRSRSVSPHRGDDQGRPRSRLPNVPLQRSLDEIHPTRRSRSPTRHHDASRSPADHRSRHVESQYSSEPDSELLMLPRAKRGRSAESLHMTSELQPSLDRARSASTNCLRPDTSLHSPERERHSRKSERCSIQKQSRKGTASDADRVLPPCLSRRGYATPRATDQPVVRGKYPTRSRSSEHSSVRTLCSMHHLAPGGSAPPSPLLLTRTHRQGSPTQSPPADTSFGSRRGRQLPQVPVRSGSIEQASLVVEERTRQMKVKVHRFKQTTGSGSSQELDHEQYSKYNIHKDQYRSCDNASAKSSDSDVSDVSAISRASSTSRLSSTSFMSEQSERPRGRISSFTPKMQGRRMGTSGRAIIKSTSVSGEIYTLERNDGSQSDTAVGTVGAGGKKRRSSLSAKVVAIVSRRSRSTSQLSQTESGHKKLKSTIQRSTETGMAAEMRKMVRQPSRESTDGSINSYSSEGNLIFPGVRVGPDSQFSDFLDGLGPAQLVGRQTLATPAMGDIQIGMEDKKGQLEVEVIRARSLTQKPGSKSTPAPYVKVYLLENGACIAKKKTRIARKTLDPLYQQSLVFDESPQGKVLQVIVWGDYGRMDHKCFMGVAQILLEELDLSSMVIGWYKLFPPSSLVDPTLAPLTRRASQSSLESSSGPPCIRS

Experiments:
HA-tagged RIM1 (HA-RIM1) = HA-tagged RIM1 (HA-RIM1) (UniProt Q9JIR4); assay: co-IP; HEK293T/HEK293 cells co-transfected with two tagged proteins; immunoprecipitation (HA or GluN1 antibody where told) and immunoblot
[1] = target: GFP-tagged NMDAR subunit GluN2A (GFP-GluN2A) (UniProt Q00959); assay: co-IP; HEK293T cells co-transfected with HA-RIM1, GFP-GluN1 and GFP-GluN2A, or HA-RIM1, GFP-GluN1 and GFP-GluN2B; immunoprecipitation with GluN2A or GluN2B antibody
[2] = target: GFP-tagged NMDAR subunit GluN1 (GFP-GluN1) (UniProt P35439); assay: as above
[3] = target: GFP-tagged NMDAR subunit GluN1 (GFP-GluN1) (UniProt P35439); assay: co-IP; HEK293T/HEK293 cells co-transfected with two tagged proteins; immunoprecipitation (HA or GluN1 antibody where told) and immunoblot

binding (HA-tagged RIM1 (HA-RIM1)) | binding [1] | binding [2] | binding [3] | Substance
no binding | – | – | – | GFP-tagged NMDAR subunit GluN1 (GFP-GluN1) (from UniProt P35439 19-938) (receptor)
no binding | – | – | – | GFP-tagged NMDAR subunit GluN2A (GFP-GluN2A) (from UniProt Q00959 23-1464) (receptor)
– | no binding | no binding | no binding | HA-tagged RIM1 (HA-RIM1) (from UniProt Q9JIR4 1-1615)
